# Earlier results, collected in US12139744B2, “Stabilisation of biological samples” (QIAGEN GmbH, priority 2013, dated 2024).
# Tested on: cells
# Details: cited from earlier work
compound,measurement,value
"CC(C)[C@H](NC(=O)c1ccc2ccccc2n1)C(=O)N[C@@H](CC(=O)O)C(=O)COc1c(F)cccc1F [Q-VD-OPh, Quinoline-Val-Asp-CH2-OPH]",Cytotoxicity,not toxic to cells even at extremely high concentrations
